# PubChem BioAssay AID1259425 – University of Nebraska Medical Center, 2018
# Assay: 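Compare each knockdown with KSR1 silencing using changes in marker transcripts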 (primary screen)
# System: HCT116 human colon cancer cells
# Reagents: siRNA pool against human genes, 50 nM siRNA
# Measurement: 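After 50 nM siRNA pool, branched-DNA assay measures six marker transcripts per well, minus blank, normalised to the geometric mean of two housekeeping transcripts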
# Direction: BNIP3L mRNA: higher = more BNIP3L transcript after knockdown; NDRG1 mRNA: higher = more NDRG1 transcript after knockdown; BNIP3 mRNA: higher = more BNIP3 transcript after knockdown; ALDOC mRNA: higher = more ALDOC transcript after knockdown; ACSL5 mRNA: higher = more ACSL5 transcript after knockdown
# The whole screen tested about 14,000 reagents; shown is a random part of them. No sequences are given here. The record does not give: the time to read-out.
target gene,"BNIP3L mRNA, set 1","NDRG1 mRNA, set 1","BNIP3 mRNA, set 1","ALDOC mRNA, set 1","ACSL5 mRNA, set 1"
PAM (peptidylglycine alpha-amidating monooxygenase),0.13,0.135,0.298,0.0299,0.198
RANBP17 (RAN binding protein 17),0.0564,0.328,0.33,0.0175,0.0788
MYO9B (myosin IXB),0.0739,0.288,0.201,0.0241,0.218
H2BC3 (H2B clustered histone 3),0.107,0.261,0.191,0.0725,0.118
ID1 (inhibitor of DNA binding 1),0.132,0.364,0.42,0.0278,0.232
MAP3K7 (mitogen-activated protein kinase kinase kinase 7),0.131,0.125,0.22,0.00536,0.137
"ABHD12 (abhydrolase domain containing 12, lysophospholipase)",0.127,0.159,0.481,0.0382,0.319
ITGB1 (integrin subunit beta 1),0.184,0.218,0.446,0.0417,0.185
S100A4 (S100 calcium binding protein A4),0.0851,0.158,0.308,0.00818,0.192
STN1 (STN1 subunit of CST complex),0.0893,0.214,0.285,0.0442,0.202
ADAM21 (ADAM metallopeptidase domain 21),0.11,0.219,0.292,0.0217,0.233
GPATCH3 (G-patch domain containing 3),0.122,0.143,0.294,0.0294,0.275
PCDH1 (protocadherin 1),0.236,0.195,0.522,0.0115,0.264
ATP8A2 (ATPase phospholipid transporting 8A2),0.124,0.179,0.356,0.0405,0.137
SELE (selectin E),0.137,0.218,0.215,0.00856,0.29
SIRAL2 (SIR2 antiphage like 2),0.268,0.211,0.32,0.0178,0.247
HNRNPU (heterogeneous nuclear ribonucleoprotein U),0.097,0.213,0.3,0.0228,0.117
S100A8 (S100 calcium binding protein A8),0.0743,0.0771,0.277,0.0243,0.134

Reformatted: 7 of the entries above
| target gene | BNIP3L mRNA, set 1 | NDRG1 mRNA, set 1 | BNIP3 mRNA, set 1 | ALDOC mRNA, set 1 | ACSL5 mRNA, set 1 |
| --- | --- | --- | --- | --- | --- |
| H2BC3 (H2B clustered histone 3) | 0.107 | 0.261 | 0.191 | 0.0725 | 0.118 |
| ID1 (inhibitor of DNA binding 1) | 0.132 | 0.364 | 0.42 | 0.0278 | 0.232 |
| MAP3K7 (mitogen-activated protein kinase kinase kinase 7) | 0.131 | 0.125 | 0.22 | 0.00536 | 0.137 |
| ABHD12 (abhydrolase domain containing 12, lysophospholipase) | 0.127 | 0.159 | 0.481 | 0.0382 | 0.319 |
| ITGB1 (integrin subunit beta 1) | 0.184 | 0.218 | 0.446 | 0.0417 | 0.185 |
| S100A4 (S100 calcium binding protein A4) | 0.0851 | 0.158 | 0.308 | 0.00818 | 0.192 |
| STN1 (STN1 subunit of CST complex) | 0.0893 | 0.214 | 0.285 | 0.0442 | 0.202 |

The listing continues:
target gene,"BNIP3L mRNA, set 1","NDRG1 mRNA, set 1","BNIP3 mRNA, set 1","ALDOC mRNA, set 1","ACSL5 mRNA, set 1"
ARHGAP11A (Rho GTPase activating protein 11A),0.252,0.196,0.45,0.0819,0.347
GUCA1A (guanylate cyclase activator 1A),0.091,0.102,0.241,0.0219,0.0787
RPGR (retinitis pigmentosa GTPase regulator),0.209,0.203,0.162,0.0226,0.23
VIPAS39,0.117,0.113,0.298,0.0415,0.137
TOPORS,0.0961,0.081,0.273,0.0182,0.0819
RNF7 (ring finger protein 7),0.0749,0.0682,0.173,0.0161,0.0598
ZNF135 (zinc finger protein 135),0.184,0.196,0.358,0.0156,0.113
TSPAN15 (tetraspanin 15),0.0346,0.176,0.393,0.0153,0.287
IFRD1 (interferon related developmental regulator 1),0.115,0.279,0.252,0.0321,0.113
ABCC4 (ATP binding cassette subfamily C member 4 (PEL blood group)),0.149,0.113,0.309,0.0312,0.147
HIC2 (HIC ZBTB transcriptional repressor 2),0.151,0.202,0.211,0.0384,0.157
PRMT2IP (PRMT2 interacting protein),0.14,0.852,0.196,0.05,0.444
ZNF318 (zinc finger protein 318),0.167,0.316,0.469,0.0252,0.372
MAGI3,0.171,0.973,0.541,0.00474,0.592
PREX2,0.144,0.494,0.707,0.0411,0.24
ARMC8 (armadillo repeat containing 8),0.0738,0.247,0.221,0.0268,0.159
PAK6 (p21 (RAC1) activated kinase 6),0.116,0.118,0.338,0.00927,0.201
HACD3 (3-hydroxyacyl-CoA dehydratase 3),0.187,0.138,0.268,0.0802,0.144
"TOB1 (transducer of ERBB2, 1)",0.0481,0.0477,0.13,0.0113,0.126
AKR7A2 (aldo-keto reductase family 7 member A2),0.132,0.13,0.4,0.00152,0.25
KDM5A (lysine demethylase 5A),0.0383,0.177,0.291,0.00742,0.0846
POLRMT (RNA polymerase mitochondrial),0.102,1.1,0.281,0.039,0.108
CDC26 (cell division cycle 26),0.141,0.123,0.363,0.0273,0.264
PPFIA3 (PPFI scaffold protein A3),0.0798,0.105,0.301,0.0367,0.0947
BATF3 (basic leucine zipper ATF-like transcription factor 3),0.124,0.106,0.31,0.016,0.313
ANGPTL7 (angiopoietin like 7),0.0706,0.205,0.498,0.0428,0.19
MYO7B (myosin VIIB),0.0958,0.183,0.29,0.0304,0.189
VGLL4 (vestigial like family member 4),0.159,0.153,0.255,0.0712,0.474
ZMAT1 (zinc finger matrin-type 1),0.0554,0.247,0.258,0.0308,0.28
SEMA3C (semaphorin 3C),0.141,0.277,0.314,0.0197,0.165
CLTB (clathrin light chain B),0.178,0.00763,0.263,0.122,0.132
MOCS1 (molybdenum cofactor synthesis 1),0.085,0.228,0.242,0.0304,0.201
